Measured values from article PMC7336658.
No constants are given. Whether binding was seen depends on the method and setting. Binding seen in cells or lysates may run through a third protein. Some results given as binding are weak or reduced against the parent protein; the word gives no strength.

Amino acid sequences for entries named in this document (tags omitted).
UniProt P31273: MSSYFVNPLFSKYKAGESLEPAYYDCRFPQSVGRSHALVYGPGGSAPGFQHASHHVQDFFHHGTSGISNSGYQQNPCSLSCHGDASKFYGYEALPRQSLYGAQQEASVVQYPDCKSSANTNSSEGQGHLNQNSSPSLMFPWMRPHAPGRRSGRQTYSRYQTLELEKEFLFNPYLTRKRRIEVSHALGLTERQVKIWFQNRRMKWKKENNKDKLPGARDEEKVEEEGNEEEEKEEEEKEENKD
UniProt P56178: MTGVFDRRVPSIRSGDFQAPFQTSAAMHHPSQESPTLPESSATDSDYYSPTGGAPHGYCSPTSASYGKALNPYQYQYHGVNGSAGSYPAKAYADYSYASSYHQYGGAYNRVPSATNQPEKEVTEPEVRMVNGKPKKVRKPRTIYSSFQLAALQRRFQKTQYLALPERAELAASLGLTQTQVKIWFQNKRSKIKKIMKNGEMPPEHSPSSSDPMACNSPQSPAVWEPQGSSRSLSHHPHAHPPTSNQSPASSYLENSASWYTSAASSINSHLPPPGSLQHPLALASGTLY

Tests used:
Assay in all cases: co-IP; SCAP lysates (IP lysis buffer, protease inhibitor cocktail); specific primary antibody (DLX5 or HOXC8) 4 h, protein A/G Sepharose overnight at 4 °C; beads washed three times with lysis buffer; Western blot; cells with over-expression or shRNA knock-down of DLX5 or HOXC8
[1] = target: HOXC8 (Homeobox C8), over-expressed in SCAPs (human) (UniProt P31273)
[2] = target: DLX5 (Distal-less homeobox 5), over-expressed in SCAPs (human) (UniProt P56178)
[3] = target: DLX5 (Distal-less homeobox 5), endogenous in SCAPs (human (endogenous in SCAPs)) (UniProt P56178)

| binding [1] | binding [2] | binding [3] | Substance |
| --- | --- | --- | --- |
| binds | – | – | DLX5 (Distal-less homeobox 5), endogenous in SCAPs (from UniProt P56178 1-289) |
| – | binds | binds | HOXC8 (Homeobox C8), endogenous in SCAPs (from UniProt P31273 1-242) |
